According to publication PMC7996396, “Affinity and Structural Analysis of the U1A RNA Recognition Motif with Engineered Methionines to Improve Experimental Phasing”:
These are yes or no findings as the source states them, for the method shown.

Sequences of proteins named here, by UniProt entry; tags and fusion partners are left off. A change or cut given only in a name is not applied to a line headed by its entry. A line that says so, or that is headed by a name, gives the form on record, which may keep a tag or linker.
selenomethionine-labeled dmU1A(F37M/F77M) (P09012, form named): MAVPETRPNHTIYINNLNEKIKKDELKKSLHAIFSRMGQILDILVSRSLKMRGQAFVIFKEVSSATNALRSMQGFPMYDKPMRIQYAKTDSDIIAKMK
U1A RNA-recognition motif 1 (RRM1) variant Y31H/Q36R (double-mutant protein, dmU1A) (P09012, form named): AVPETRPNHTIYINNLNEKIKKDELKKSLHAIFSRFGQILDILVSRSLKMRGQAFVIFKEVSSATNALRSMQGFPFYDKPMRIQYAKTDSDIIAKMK

Tests used:
[1] = molecular target: selenomethionine-labeled dmU1A(F37M/F77M) (human) (UniProt P09012); assay: SEC; HiPrep (16/60) Sephacryl S-300 HR column, concentrated protein sample (~150 μm), molecular weight standards; both purified
[2] = molecular target: selenomethionine-labeled dmU1A(F37M/F77M) (human) (UniProt P09012); assay: ITC; protein injected into buffer alone (heats of dilution) as a control for oligomerization; PEAQ-ITC, 20 °C, 0.05 M Na-HEPES pH 7.5, 0.05 M NaCl, 0.05 M KCl, 0.002 M MgCl2, 0.005 M β-ME; both purified
[3] = molecular target: U1A RNA-recognition motif 1 (RRM1) variant Y31H/Q36R (double-mutant protein, dmU1A) (human) (UniProt P09012); assay: SEC; HiPrep (16/60) Sephacryl S-300 HR column, concentrated protein sample (~150 μm), molecular weight standards; both purified
[4] = molecular target: U1A RNA-recognition motif 1 (RRM1) variant Y31H/Q36R (double-mutant protein, dmU1A) (human) (UniProt P09012); assay: ITC; protein injected into buffer alone (heats of dilution) as a control for oligomerization; PEAQ-ITC, 20 °C, 0.05 M Na-HEPES pH 7.5, 0.05 M NaCl, 0.05 M KCl, 0.002 M MgCl2, 0.005 M β-ME; both purified

| binding [1] | binding [3] | Substance | binding [2] | binding [4] |
| --- | --- | --- | --- | --- |
| no binding (tested: ~150 μm) |  | selenomethionine-labeled dmU1A(F37M/F77M) (from UniProt P09012 1-98) (domain or fragment) | no binding (tested: ~10-fold higher than the RNA (7–10 μM)) |  |
|  | no binding (tested: ~150 μm) | U1A RNA-recognition motif 1 (RRM1) variant Y31H/Q36R (double-mutant protein, dmU1A) (from UniProt P09012 2-98) (domain or fragment) |  | no binding (tested: ~10-fold higher than the RNA (7–10 μM)) |
